Cell number after 72 h of treatment

From a melanoma drug combination screen (doi:10.1371/journal.pone.0140310); values rounded.

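Human melanoma cells were exposed to two drugs together for 72 h in 1,536-well plates and read by automated microscopy after fixing and staining. The read-out is cell count (nuclei) in % of the DMSO control; lower values mean stronger growth inhibition or killing. Concentrations were fixed for each drug; these are the lower of two levels, a fifth of the higher. The file gives one value for each pair and line, without errors, so small differences may be noise.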
This is part of the screen, not chosen by result.
An entry leaves out what has no value listed here.
A dash means that no value is listed here.

Compounds and concentrations:
LFM-A13 (2 µM): C/C(O)=C(\C#N)C(=O)Nc1cc(Br)ccc1Br
darinaparsin (0.4 µM): C[As](C)SC[C@H](NC(=O)CC[C@H](N)C(=O)O)C(=O)NCC(=O)O
RKI-983 (0.4 µM): C[C@@H](N)c1ccc(C(=O)Nc2ccnc3[nH]ccc23)cc1
etoposide (0.02 µM): COc1cc([C@@H]2c3cc4c(cc3[C@@H](O[C@@H]3O[C@@H]5CO[C@@H](C)O[C@H]5[C@H](O)[C@H]3O)[C@H]3COC(=O)[C@H]23)OCO4)cc(OC)c1O
NVP-BEZ235 (0.004 µM): Cn1c(=O)n(-c2ccc(C(C)(C)C#N)cc2)c2c3cc(-c4cnc5ccccc5c4)ccc3ncc21
PF-04217903 (1 µM): OCCn1cc(-c2cnc3nnn(Cc4ccc5ncccc5c4)c3n2)cn1
docetaxel (0.0001 µM): CC(=O)O[C@@]12CO[C@@H]1C[C@H](O)[C@@]1(C)C(=O)[C@H](O)C3=C(C)[C@@H](OC(=O)[C@H](O)[C@@H](NC(=O)OC(C)(C)C)c4ccccc4)C[C@@](O)([C@@H](OC(=O)c4ccccc4)[C@H]21)C3(C)C
enzastaurin (0.8 µM): Cn1cc(C2=C(c3cn(C4CCN(Cc5ccccn5)CC4)c4ccccc34)C(=O)NC2=O)c2ccccc21
palbociclib (0.04 µM): CC(=O)c1c(C)c2cnc(Nc3ccc(N4CCNCC4)cn3)nc2n(C2CCCC2)c1=O
fludarabine (0.2 µM): Nc1nc(F)nc2c1ncn2[C@@H]1O[C@H](CO)[C@@H](O)[C@@H]1O
ruxolitinib (1 µM): N#CC[C@H](C1CCCC1)n1cc(-c2ncnc3[nH]ccc23)cn1
nilotinib (0.2 µM): Cc1cn(-c2cc(NC(=O)c3ccc(C)c(Nc4nccc(-c5cccnc5)n4)c3)cc(C(F)(F)F)c2)cn1
BI-D1870 (0.2 µM): CC(C)CCN1c2nc(Nc3cc(F)c(O)c(F)c3)ncc2N(C)C(=O)C1C (stereo not given)
OSI-906 (0.4 µM): C[C@]1(O)C[C@@H](c2nc(-c3ccc4ccc(-c5ccccc5)nc4c3)c3c(N)nccn32)C1
GW0742 (2 µM): Cc1cc(SCc2sc(-c3ccc(C(F)(F)F)c(F)c3)nc2C)ccc1OCC(=O)O
AS-252424 (1 µM): O=C1NC(=O)/C(=C/c2ccc(-c3ccc(F)cc3O)o2)S1
sunitinib (0.4 µM): CCN(CC)CCNC(=O)c1c(C)[nH]c(/C=C2\C(=O)Nc3ccc(F)cc32)c1C
crizotinib (0.2 µM): C[C@@H](Oc1cc(-c2cnn(C3CCNCC3)c2)cnc1N)c1c(Cl)ccc(F)c1Cl
nutlin-3 (0.1 µM): COc1ccc(C2=N[C@@H](c3ccc(Cl)cc3)[C@@H](c3ccc(Cl)cc3)N2C(=O)N2CCNC(=O)C2)c(OC(C)C)c1
JZL184 (1 µM): O=C(Oc1ccc([N+](=O)[O-])cc1)N1CCC(C(O)(c2ccc3c(c2)OCO3)c2ccc3c(c2)OCO3)CC1

Drugs | A375 | C32 | 501mel | A101D | A2058
darinaparsin + GW0742 | 91.9 | 99.2 | 92.9 | 126 | 100
NVP-BEZ235 + GW0742 | - | 98.3 | 101 | 92.8 | 99.0
JZL184 + RKI-983 | - | 95.3 | 75.6 | 87.0 | 86.4
nilotinib + LFM-A13 | - | 107 | 86.0 | 97.0 | 111
nutlin-3 + JZL184 | - | 82.4 | 86.4 | 69.5 | 106
BI-D1870 + enzastaurin | - | 110 | 106 | 74.0 | 114
fludarabine + JZL184 | - | 120 | 4.3 | 106 | 82.2
nilotinib + GW0742 | - | 85.5 | 87.0 | 94.4 | 94.2
LFM-A13 + enzastaurin | - | 113 | 99.0 | 101 | 97.5
JZL184 + darinaparsin | 98.5 | 89.4 | 78.7 | 99.5 | 95.9
NVP-BEZ235 + LFM-A13 | - | 85.9 | 112 | 88.9 | 83.0
GW0742 + nutlin-3 | - | 95.3 | 97.2 | 78.2 | 91.0
JZL184 + NVP-BEZ235 | - | 97.7 | 74.4 | 86.6 | 70.7
LFM-A13 + OSI-906 | - | 96.9 | 64.9 | 93.1 | 90.2
palbociclib + GW0742 | - | 84.2 | 50.3 | 86.1 | 103
docetaxel + LFM-A13 | - | 91.9 | 78.4 | 61.6 | 4.6
GW0742 + RKI-983 | - | 82.0 | 89.3 | 107 | 68.3
OSI-906 + GW0742 | - | 101 | 80.0 | 95.3 | 94.4
JZL184 + etoposide | - | 79.1 | 93.9 | 87.0 | 93.8
AS-252424 + darinaparsin | 109 | 94.5 | 75.5 | 95.2 | 103
crizotinib + AS-252424 | - | 83.8 | 85.9 | 101 | 98.6
docetaxel + GW0742 | - | 87.5 | 51.7 | 77.7 | 8.3
JZL184 + sunitinib | - | 98.6 | 83.0 | 81.1 | 94.2
JZL184 + OSI-906 | - | 101 | 94.2 | 87.8 | 93.3
crizotinib + BI-D1870 | - | 104 | 106 | 101 | 107
AS-252424 + enzastaurin | - | 94.9 | 90.9 | 94.5 | 100
GW0742 + fludarabine | - | 103 | 5.7 | 88.7 | 110
LFM-A13 + etoposide | - | 102 | 117 | 89.8 | 88.5
sunitinib + LFM-A13 | - | 97.4 | 79.4 | 88.9 | 102
PF-04217903 + ruxolitinib | - | 104 | - | 113 | 90.2
GW0742 + ruxolitinib | - | 103 | 99.7 | 120 | 93.2

The last 3 entries again:

- sunitinib + LFM-A13 | C32: 97.4; 501mel: 79.4; A101D: 88.9; A2058: 102
- PF-04217903 + ruxolitinib | C32: 104; A101D: 113; A2058: 90.2
- GW0742 + ruxolitinib | C32: 103; 501mel: 99.7; A101D: 120; A2058: 93.2